Laboratory results reported in publication PMC5718073.
These are yes or no findings as the source states them, for the method shown. In cells and extracts the contact can be indirect. Some results given as binding are weak or reduced against the parent protein; the word gives no strength. For some assays here: Sequences can lack the tags named with a protein. One block for each molecule: values may come before it.

The chains behind the UniProt entries cited, without tags or fusion partners.
UniProt Q9V460: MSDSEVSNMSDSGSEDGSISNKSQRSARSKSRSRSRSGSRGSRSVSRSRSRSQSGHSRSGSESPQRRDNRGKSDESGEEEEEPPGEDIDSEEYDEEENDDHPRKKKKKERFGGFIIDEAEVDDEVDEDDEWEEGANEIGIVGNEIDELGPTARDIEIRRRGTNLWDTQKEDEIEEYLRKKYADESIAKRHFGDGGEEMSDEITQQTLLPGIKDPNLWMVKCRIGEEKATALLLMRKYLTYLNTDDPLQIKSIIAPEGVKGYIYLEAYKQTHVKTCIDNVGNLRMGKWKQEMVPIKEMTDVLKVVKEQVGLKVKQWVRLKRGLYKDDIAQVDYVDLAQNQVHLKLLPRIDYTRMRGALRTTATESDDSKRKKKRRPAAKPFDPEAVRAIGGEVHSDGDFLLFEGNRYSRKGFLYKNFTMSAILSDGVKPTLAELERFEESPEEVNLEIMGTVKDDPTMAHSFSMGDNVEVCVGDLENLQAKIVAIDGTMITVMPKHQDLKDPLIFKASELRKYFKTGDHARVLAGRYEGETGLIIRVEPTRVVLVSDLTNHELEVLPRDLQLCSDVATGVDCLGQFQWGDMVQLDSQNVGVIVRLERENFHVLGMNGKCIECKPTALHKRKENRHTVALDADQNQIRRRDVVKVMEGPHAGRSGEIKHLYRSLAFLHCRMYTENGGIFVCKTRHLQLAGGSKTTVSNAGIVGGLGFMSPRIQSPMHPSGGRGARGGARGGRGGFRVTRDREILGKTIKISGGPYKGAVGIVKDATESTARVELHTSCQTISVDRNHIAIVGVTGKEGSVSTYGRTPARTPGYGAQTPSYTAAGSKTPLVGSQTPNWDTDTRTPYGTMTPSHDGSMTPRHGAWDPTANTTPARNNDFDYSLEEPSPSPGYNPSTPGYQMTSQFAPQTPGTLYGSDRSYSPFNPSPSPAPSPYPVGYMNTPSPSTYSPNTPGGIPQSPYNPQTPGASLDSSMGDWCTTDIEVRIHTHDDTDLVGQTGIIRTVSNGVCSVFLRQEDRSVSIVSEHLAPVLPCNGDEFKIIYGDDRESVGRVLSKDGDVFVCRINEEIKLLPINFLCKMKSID

Assays:
[1] = molecular target: FLAG-tagged Spt5 (Drosophila) (UniProt Q9V460); experiment: co-IP; as the co-IP from transfected S2 DRSC cells (control or heat shocked), but the lysate was treated with DNase I or RNase A for 10 min at room temperature (0.4 mM MgCl2, stopped with 5 mM EDTA) before the anti-FLAG IP
[2] = molecular target: FLAG-tagged Spt5 (Drosophila) (UniProt Q9V460); experiment: co-IP; S2 DRSC cells transiently co-transfected with a FLAG-tagged and an HA-tagged construct; lysis in 50 mM Tris pH 7.5, 150 mM NaCl, 1% NP40, 1 mM EGTA, 20 mM NaF; anti-FLAG IP on Protein G Dynabeads at 4 °C, anti-HA Western blot; cells at 25 °C, heat shocked (37 °C, 15 min) and recovering, or treated with radicicol, flavopiridol + heat shock, sodium salicylate, HSF or LacZ RNAi
[3] = molecular target: FLAG-tagged Pho (Drosophila) (UniProt Q8ST83); experiment: as above

binding [1]: binds
binding [2]: binds weakly
Molecule: HA-tagged PhoV164D (from UniProt Q8ST83 1-520)

binding [1]: binds
binding [2]: binds
Molecule: HA-tagged Pleiohomeotic (Pho) (from UniProt Q8ST83 1-520)

binding [3]: binds
Molecule: HA-tagged Spt5 (from UniProt Q9V460 1-1078)

binding [2]: binds
B1: HA-tagged N-Pho (a.a 1-351) (domain or fragment, UniProt Q8ST83 1-351)
chain: MAYERFGIILQSEQYDEDIGNTKVNQKMNEGNHYDLHRKNAFDRIIHSESKKGDNVINYNIHENDKIKAADNIFSSKLKMNPNMSYEMNINCFKNIGYGENQETSKVLTNSLSNNDINTEESGVVDKNSPFLTLGTTILNSNGKSRRWEQKLVHIKTMEGEFSVTMWASGISDDEYSGSDQIVGASDLLKGKEEFGIDGFTSQQNKEYQKMESKFTNAQTLEMPHPISSVQIMDHLIKERGNLSQENNISERILSKTTLSFEEPILLPDSSSIELVNETAAMTINNHRTLSNHTGNTGDLHALPSSVPFRIGLHEGQVNDCLSTISQSTHQDNTDSTGCGEMNLSEVTVSY

binding [2]: binds
B2: HA-tagged Spt4 (protein, UniProt Q9TVQ5 1-116)
chain: MAFDAIPKDLRGLRACLVCSLVKSFDQFETDGCENCEEFLRMKNNKDNVYDHTSNNFDGIIALTTPTDSWVAKWQRLSRFTRGIYAISVSGTLPQSTLRDMKNRGIVYKSRDRSQR

binding [2]: binds
B3: HA-tagged 1-200N-Pho (a.a 1-200) (domain or fragment, UniProt Q8ST83 1-200)
chain: MAYERFGIILQSEQYDEDIGNTKVNQKMNEGNHYDLHRKNAFDRIIHSESKKGDNVINYNIHENDKIKAADNIFSSKLKMNPNMSYEMNINCFKNIGYGENQETSKVLTNSLSNNDINTEESGVVDKNSPFLTLGTTILNSNGKSRRWEQKLVHIKTMEGEFSVTMWASGISDDEYSGSDQIVGASDLLKGKEEFGIDGF
